Data published in article PMC5706974.
No constants are given. Whether binding was seen depends on the method and setting. Binding seen in cells or lysates may run through a third protein. Some entries that bind do so weakly or less than the wild type.

Biological target: T1, platelet collagen receptor GPVI (human (endogenous in platelets)), Q9HCN6
T1 chain: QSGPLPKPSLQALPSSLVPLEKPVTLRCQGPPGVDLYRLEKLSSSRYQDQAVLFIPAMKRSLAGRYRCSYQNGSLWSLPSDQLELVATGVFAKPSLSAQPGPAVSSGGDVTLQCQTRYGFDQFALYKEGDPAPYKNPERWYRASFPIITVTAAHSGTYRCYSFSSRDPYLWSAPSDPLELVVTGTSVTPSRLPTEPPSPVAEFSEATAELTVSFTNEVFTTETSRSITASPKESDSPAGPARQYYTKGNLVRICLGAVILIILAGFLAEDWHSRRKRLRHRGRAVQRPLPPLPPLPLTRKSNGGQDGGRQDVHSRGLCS
Assay: co-IP; 1 x 10^9 washed human platelets lysed in 1% Brij97 lysis buffer, pre-cleared; immunoprecipitation with anti-human GPVI (HY101) or isotype control (MOPC-21) on protein G sepharose, 90 minutes at 4°C; western blot for Tspan9 and GPVI
Details: remark: other sources report otherwise

binding: binds
B1: tetraspanin Tspan9, O75954 1-239 (protein)
chain: MARGCLCCLKYMMFLFNLIFWLCGCGLLGVGIWLSVSQGNFATFSPSFPSLSAANLVIAIGTIVMVTGFLGCLGAIKENKCLLLSFFIVLLVILLAELILLILFFVYMDKVNENAKKDLKEGLLLYHTENNVGLKNAWNIIQAEMRCCGVTDYTDWYPVLGENTVPDRCCMENSQGCGRNATTPLWRTGCYEKVKMWFDDNKHVLGTVGMCILIMQILGMAFSMTLFQHIHRTGKKYDA
